No constants are given. Whether binding was seen depends on the method and setting. In cells and extracts the contact can be indirect. Some binding calls cover weakened binding; strength is not graded here. For part of these data: Where a sequence is shown, tags or fusion partners need not be part of it. One block for each binder: values may come before it.
Columns and labels:
ELAVL1-FLAG, Q15717 = assay: co-IP; conditions: remark: other sources report otherwise
[1] = molecular target: T1, hnRNPM-GFP (heterogeneous nuclear ribonucleoprotein M, C-terminally GFP-tagged), P52272; assay: co-IP; conditions: remark: other sources report otherwise
T1 chain: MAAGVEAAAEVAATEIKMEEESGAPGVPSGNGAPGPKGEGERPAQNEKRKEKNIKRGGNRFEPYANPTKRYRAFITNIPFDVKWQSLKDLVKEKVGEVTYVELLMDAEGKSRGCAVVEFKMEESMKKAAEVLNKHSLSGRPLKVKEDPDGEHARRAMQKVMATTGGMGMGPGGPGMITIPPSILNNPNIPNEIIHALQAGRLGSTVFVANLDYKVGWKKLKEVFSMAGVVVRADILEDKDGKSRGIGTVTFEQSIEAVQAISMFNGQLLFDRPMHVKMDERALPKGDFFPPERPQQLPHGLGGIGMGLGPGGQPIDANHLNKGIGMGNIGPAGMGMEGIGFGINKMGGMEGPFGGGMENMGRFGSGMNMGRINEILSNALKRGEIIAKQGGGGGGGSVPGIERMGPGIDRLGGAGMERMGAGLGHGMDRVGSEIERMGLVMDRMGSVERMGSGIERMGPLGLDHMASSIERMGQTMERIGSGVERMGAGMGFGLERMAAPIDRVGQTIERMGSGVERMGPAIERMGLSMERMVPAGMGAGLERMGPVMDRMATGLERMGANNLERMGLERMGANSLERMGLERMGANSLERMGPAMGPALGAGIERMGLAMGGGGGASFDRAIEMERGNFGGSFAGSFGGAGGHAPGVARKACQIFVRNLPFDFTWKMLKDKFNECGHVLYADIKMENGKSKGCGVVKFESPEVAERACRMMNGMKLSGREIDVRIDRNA

Sequences of proteins named here, by UniProt entry; tags and fusion partners are left off.
UniProt Q15717, whole entry: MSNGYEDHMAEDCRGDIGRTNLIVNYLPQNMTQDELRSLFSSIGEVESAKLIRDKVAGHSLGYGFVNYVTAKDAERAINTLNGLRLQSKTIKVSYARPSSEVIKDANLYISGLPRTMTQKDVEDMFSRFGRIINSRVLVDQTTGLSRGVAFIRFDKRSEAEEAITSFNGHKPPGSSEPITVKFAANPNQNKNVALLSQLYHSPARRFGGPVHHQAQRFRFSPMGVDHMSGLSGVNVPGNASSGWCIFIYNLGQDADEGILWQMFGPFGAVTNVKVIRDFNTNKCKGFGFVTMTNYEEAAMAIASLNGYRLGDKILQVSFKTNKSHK

[2] = molecular target: T1, hnRNPM-GFP (heterogeneous nuclear …); assay: proximity ligation; conditions: remark: other sources report otherwise
ELAVL1-GFP = ELAVL1-GFP (UniProt Q15717); assay: proximity ligation
ELAVL1-FLAG = ELAVL1-FLAG (UniProt Q15717); assay: co-IP

- binding (ELAVL1-FLAG, Q15717): no binding
B1: IKKβ (printed as IKKý), endogenous in HEK293FT, O14920 1-756 (protein)
chain: MSWSPSLTTQTCGAWEMKERLGTGGFGNVIRWHNQETGEQIAIKQCRQELSPRNRERWCLEIQIMRRLTHPNVVAARDVPEGMQNLAPNDLPLLAMEYCQGGDLRKYLNQFENCCGLREGAILTLLSDIASALRYLHENRIIHRDLKPENIVLQQGEQRLIHKIIDLGYAKELDQGSLCTSFVGTLQYLAPELLEQQKYTVTVDYWSFGTLAFECITGFRPFLPNWQPVQWHSKVRQKSEVDIVVSEDLNGTVKFSSSLPYPNNLNSVLAERLEKWLQLMLMWHPRQRGTDPTYGPNGCFKALDDILNLKLVHILNMVTGTIHTYPVTEDESLQSLKARIQQDTGIPEEDQELLQEAGLALIPDKPATQCISDGKLNEGHTLDMDLVFLFDNSKITYETQISPRPQPESVSCILQEPKRNLAFFQLRKVWGQVWHSIQTLKEDCNRLQQGQRAAMMNLLRNNSCLSKMKNSMASMSQQLKAKLDFFKTSIQIDLEKYSEQTEFGITSDKLLLAWREMEQAVELCGRENEVKLLVERMMALQTDIVDLQRSPMGRKQGGTLDDLEEQARELYRRLREKPRDQRTEGDSQEMVRLLLQAIQSFEKKVRVIYTQLSKTVVCKQKALELLPKVEEVVSLMNEDEKTVVRLQEKRQKELWNLLKIACSKVRGPVSGSPDSMNASRLSQPGQLMSQPSTASNSLPEPAKKSEELVAEAHNLCTLLENAIQDTVREQDQSFTALDWSWLQTEEEEHSCLEQAS

- binding [1]: binds
- binding [2]: binds
B2: TBK1 phosphorylated at Ser172 (pTBK1-Ser172), endogenous in THP-1, Q9UHD2 1-729 (protein)
chain: MQSTSNHLWLLSDILGQGATANVFRGRHKKTGDLFAIKVFNNISFLRPVDVQMREFEVLKKLNHKNIVKLFAIEEETTTRHKVLIMEFCPCGSLYTVLEEPSNAYGLPESEFLIVLRDVVGGMNHLRENGIVHRDIKPGNIMRVIGEDGQSVYKLTDFGAARELEDDEQFVSLYGTEEYLHPDMYERAVLRKDHQKKYGATVDLWSIGVTFYHAATGSLPFRPFEGPRRNKEVMYKIITGKPSGAISGVQKAENGPIDWSGDMPVSCSLSRGLQVLLTPVLANILEADQEKCWGFDQFFAETSDILHRMVIHVFSLQQMTAHKIYIHSYNTATIFHELVYKQTKIISSNQELIYEGRRLVLEPGRLAQHFPKTTEENPIFVVSREPLNTIGLIYEKISLPKVHPRYDLDGDASMAKAITGVVCYACRIASTLLLYQELMRKGIRWLIELIKDDYNETVHKKTEVVITLDFCIRNIEKTVKVYEKLMKINLEAAELGEISDIHTKLLRLSSSQGTIETSLQDIDSRLSPGGSLADAWAHQEGTHPKDRNVEKLQVLLNCMTEIYYQFKKDKAERRLAYNEEQIHKFDKQKLYYHATKAMTHFTDECVKKYEAFLNKSEEWIRKMLHLRKQLLSLTNQCFDIEEEVSKYQEYTNELQETLPQKMFTASSGIKHTMTPIYPSSNTLVEMTLGMKKLKEEMEGVVKELAENNHILERFGSLTMDGGLRNVDCL
modifications: here or on the partner: phosphoserine at 172

- binding (ELAVL1-GFP): binds
B3: TBK1 phosphorylated at Ser172 (pTBK1-Ser172), endogenous in THP-1 (protein, UniProt Q9UHD2 1-729)
chain: MQSTSNHLWLLSDILGQGATANVFRGRHKKTGDLFAIKVFNNISFLRPVDVQMREFEVLKKLNHKNIVKLFAIEEETTTRHKVLIMEFCPCGSLYTVLEEPSNAYGLPESEFLIVLRDVVGGMNHLRENGIVHRDIKPGNIMRVIGEDGQSVYKLTDFGAARELEDDEQFVSLYGTEEYLHPDMYERAVLRKDHQKKYGATVDLWSIGVTFYHAATGSLPFRPFEGPRRNKEVMYKIITGKPSGAISGVQKAENGPIDWSGDMPVSCSLSRGLQVLLTPVLANILEADQEKCWGFDQFFAETSDILHRMVIHVFSLQQMTAHKIYIHSYNTATIFHELVYKQTKIISSNQELIYEGRRLVLEPGRLAQHFPKTTEENPIFVVSREPLNTIGLIYEKISLPKVHPRYDLDGDASMAKAITGVVCYACRIASTLLLYQELMRKGIRWLIELIKDDYNETVHKKTEVVITLDFCIRNIEKTVKVYEKLMKINLEAAELGEISDIHTKLLRLSSSQGTIETSLQDIDSRLSPGGSLADAWAHQEGTHPKDRNVEKLQVLLNCMTEIYYQFKKDKAERRLAYNEEQIHKFDKQKLYYHATKAMTHFTDECVKKYEAFLNKSEEWIRKMLHLRKQLLSLTNQCFDIEEEVSKYQEYTNELQETLPQKMFTASSGIKHTMTPIYPSSNTLVEMTLGMKKLKEEMEGVVKELAENNHILERFGSLTMDGGLRNVDCL
modifications: phosphoserine at 172

- binding (ELAVL1-FLAG): binds
B4: TBK1, endogenous in HEK293FT (protein, UniProt Q9UHD2 1-729)
chain: MQSTSNHLWLLSDILGQGATANVFRGRHKKTGDLFAIKVFNNISFLRPVDVQMREFEVLKKLNHKNIVKLFAIEEETTTRHKVLIMEFCPCGSLYTVLEEPSNAYGLPESEFLIVLRDVVGGMNHLRENGIVHRDIKPGNIMRVIGEDGQSVYKLTDFGAARELEDDEQFVSLYGTEEYLHPDMYERAVLRKDHQKKYGATVDLWSIGVTFYHAATGSLPFRPFEGPRRNKEVMYKIITGKPSGAISGVQKAENGPIDWSGDMPVSCSLSRGLQVLLTPVLANILEADQEKCWGFDQFFAETSDILHRMVIHVFSLQQMTAHKIYIHSYNTATIFHELVYKQTKIISSNQELIYEGRRLVLEPGRLAQHFPKTTEENPIFVVSREPLNTIGLIYEKISLPKVHPRYDLDGDASMAKAITGVVCYACRIASTLLLYQELMRKGIRWLIELIKDDYNETVHKKTEVVITLDFCIRNIEKTVKVYEKLMKINLEAAELGEISDIHTKLLRLSSSQGTIETSLQDIDSRLSPGGSLADAWAHQEGTHPKDRNVEKLQVLLNCMTEIYYQFKKDKAERRLAYNEEQIHKFDKQKLYYHATKAMTHFTDECVKKYEAFLNKSEEWIRKMLHLRKQLLSLTNQCFDIEEEVSKYQEYTNELQETLPQKMFTASSGIKHTMTPIYPSSNTLVEMTLGMKKLKEEMEGVVKELAENNHILERFGSLTMDGGLRNVDCL

- binding (ELAVL1-FLAG, Q15717): no binding
B5: IKKε, endogenous in HEK293FT, Q14164 1-716 (protein)
chain: MQSTANYLWHTDDLLGQGATASVYKARNKKSGELVAVKVFNTTSYLRPREVQVREFEVLRKLNHQNIVKLFAVEETGGSRQKVLVMEYCSSGSLLSVLESPENAFGLPEDEFLVVLRCVVAGMNHLRENGIVHRDIKPGNIMRLVGEEGQSIYKLTDFGAARELDDDEKFVSVYGTEEYLHPDMYERAVLRKPQQKAFGVTVDLWSIGVTLYHAATGSLPFIPFGGPRRNKEIMYRITTEKPAGAIAGAQRRENGPLEWSYTLPITCQLSLGLQSQLVPILANILEVEQAKCWGFDQFFAETSDILQRVVVHVFSLSQAVLHHIYIHAHNTIAIFQEAVHKQTSVAPRHQEYLFEGHLCVLEPSVSAQHIAHTTASSPLTLFSTAIPKGLAFRDPALDVPKFVPKVDLQADYNTAKGVLGAGYQALRLARALLDGQELMFRGLHWVMEVLQATCRRTLEVARTSLLYLSSSLGTERFSSVAGTPEIQELKAAAELRSRLRTLAEVLSRCSQNITETQESLSSLNRELVKSRDQVHEDRSIQQIQCCLDKMNFIYKQFKKSRMRPGLGYNEEQIHKLDKVNFSHLAKRLLQVFQEECVQKYQASLVTHGKRMRVVHETRNHLRLVGCSVAACNTEAQGVQESLSKLLEELSHQLLQDRAKGAQASPPPIAPYPSPTRKDLLLHMQELCEGMKLLASDLLDNNRIIERLNRVPAPPDV
